Assay: general procedure: Boc solid-phase peptide synthesis; Benzhydrylamine-polystyrene resin; diisopropylcarbodiimide
Details: whole synthesis, scale 0.5 mmole

H2-D-β-Nal-Cpa-Tyr-D-Trp-Lys-Val-Phe-Thr-NH2
isolated mass: 170 mg
